US7115566B2 (University of Florida, priority 1997, dated 2006)

Test: general procedure: peptide synthesis; DIC/HOBt; DCC

Mono-Boc-Sandostatin
step yield (late stage modification step): 80.3%

Nic-Pro-Pro-(Mono-Boc-Sandostatin)
step yield (coupling step): 64.7%
